At least one compound was matched to its structure with a doubt left.
Biological target: RBP4 (Homo sapiens, UniProt P02753)
Test: SPA assay measuring displacement of 3H-retinol from purified human RBP4
Assay type: binding
Conditions: displacement of radioactive retinol from purified human RBP4
Protocol: 3H-retinol at 10 nM was used as a radioligand. […] Contacting residues are labeled and illustrated in stick format (MOE, Chemical Computing Group, Inc., Montreal, CA).
The affinity of palmitic acid, oleic acid, linoleic acid, and docosahexaenoic acid for RBP4 was tested using a SPA assay that measures displacement of radioactive retinol from purified human RBP4 (FIG. 21A).

**Q.** Which “ability to function as RBP4 ligands (competition binding)” value does the source give for CC/C=C\C/C=C\C/C=C\C/C=C\C/C=C\C/C=C\CCC(=O)O [Docosahexanoic acid (DHA), docosahexaenoic acid] here?
**A.** weak RBP4 ligands
